PubChem BioAssay AID1224830, NIAID – 2016
In all, the deposit lists about 18,000 reagents; this is a part drawn at random. Of all reagents, about 2,900 (16%) are marked active. 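Calls are made per well; low scores hint the gene aids the LPS response, high scores that it dampens it.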 Repeated entries: four replicate wells of each siRNA pool.

Purpose: 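Regulators of TLR4 signalling towards TNF-alpha in macrophage-like cells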 (primary screen)
Cells: human THP-1 monocytic leukaemia cells, TNF dual-luciferase reporter clone, PMA-differentiated to macrophage-like cells
Reagents: siRNA pool against human genes, 50 nM
Duration: LPS for 4 h, given about 3 days after siRNA transfection
Conditions: bacterial LPS (TLR4 ligand), 10 ng/ml
Read-out: 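TNF firefly reporter luminescence divided by renilla, normalised to the plate median, then turned into a robust z-score for each replicate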
Scale: TNF reporter robust z-score: higher = stronger TNF reporter response to LPS
Call rule: 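a well is active when its z-score exceeds 2.8 or falls below -1.5; control wells carry no call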

Against CCDC134 (coiled-coil domain containing 134) the deposit lists TNF reporter robust z-score -1.23; inactive.
CCDC134 (coiled-coil domain containing 134) gave TNF reporter robust z-score -0.45; inactive.
Against CCDC134 (coiled-coil domain containing 134), the values are TNF reporter robust z-score -0.68; inactive.
With knock-down of CCDC134 (coiled-coil domain containing 134), the record shows TNF reporter robust z-score 0.9; inactive.
POLR2J3 (RNA polymerase II subunit J3) showed TNF reporter robust z-score -0.53; inactive.
POLR2J3 (RNA polymerase II subunit J3) gave TNF reporter robust z-score -0.76; inactive.
With knock-down of POLR2J3 (RNA polymerase II subunit J3) the results were TNF reporter robust z-score -0.7; inactive.
POLR2J3 (RNA polymerase II subunit J3) scored TNF reporter robust z-score -1.07; inactive.
Against SSRP1 (structure specific recognition protein 1), the values are TNF reporter robust z-score -0.62; inactive.
SSRP1 (structure specific recognition protein 1) scored TNF reporter robust z-score 0.62; inactive.
Knock-down of SSRP1 (structure specific recognition protein 1) resulted in: TNF reporter robust z-score 0.76; inactive.
Silencing of SSRP1 (structure specific recognition protein 1) came out at: TNF reporter robust z-score 0.73; inactive.
Silencing of BTLA (B and T lymphocyte associated) gave: TNF reporter robust z-score -1.34; inactive.
With knock-down of BTLA (B and T lymphocyte associated) the results were TNF reporter robust z-score -0.75; inactive.
With knock-down of BTLA (B and T lymphocyte associated), the screen gave TNF reporter robust z-score -0.8; inactive.
Silencing of BTLA (B and T lymphocyte associated) came out at: TNF reporter robust z-score -1.11; inactive.
Silencing of ARPC5L (actin related protein 2/3 complex subunit 5 like) resulted in: TNF reporter robust z-score -0.32; inactive.
After knock-down of ARPC5L (actin related protein 2/3 complex subunit 5 like) the results were TNF reporter robust z-score 0.16; inactive.
Knock-down of ARPC5L (actin related protein 2/3 complex subunit 5 like) came out at: TNF reporter robust z-score 1.88; inactive.
For CC2D2B (coiled-coil and C2 domain containing 2B), the values are TNF reporter robust z-score 0.48; inactive.
Against CC2D2B (coiled-coil and C2 domain containing 2B), the values are TNF reporter robust z-score 0.68; inactive.
CC2D2B (coiled-coil and C2 domain containing 2B) gave TNF reporter robust z-score 0.44; inactive.
After knock-down of CC2D2B (coiled-coil and C2 domain containing 2B), the record shows TNF reporter robust z-score 0.37; inactive.

Reformatted: entries from further up.
| gene | TNF reporter robust z-score | activity call |
| --- | --- | --- |
| ARPC5L (actin related protein 2/3 complex subunit 5 like) | 1.88 | inactive |
| CC2D2B (coiled-coil and C2 domain containing 2B) | 0.48 | inactive |
| CC2D2B (coiled-coil and C2 domain containing 2B) | 0.68 | inactive |

Continued:
Knock-down of E2F5 (E2F transcription factor 5) resulted in: TNF reporter robust z-score -0.65; inactive.
Against E2F5 (E2F transcription factor 5), the entry reads TNF reporter robust z-score -0.93; inactive.
E2F5 (E2F transcription factor 5) gave TNF reporter robust z-score -0.26; inactive.
For E2F5 (E2F transcription factor 5), the entry reads TNF reporter robust z-score 0.57; inactive.
After knock-down of PCDHB11 (protocadherin beta 11) the results were TNF reporter robust z-score 0.14; inactive.
Against PCDHB11 (protocadherin beta 11), the values are TNF reporter robust z-score 1.43; inactive.
Against PCDHB11 (protocadherin beta 11), the values are TNF reporter robust z-score 0.29; inactive.
After knock-down of PCDHB11 (protocadherin beta 11), the screen gave TNF reporter robust z-score 1.63; inactive.
After knock-down of DLX5 (distal-less homeobox 5) the results were TNF reporter robust z-score 0.91; inactive.
DLX5 (distal-less homeobox 5) showed TNF reporter robust z-score 0.23; inactive.
Against DLX5 (distal-less homeobox 5), the entry reads TNF reporter robust z-score -0.41; inactive.
For DLX5 (distal-less homeobox 5) the deposit lists TNF reporter robust z-score 1.49; inactive.
